Data as given in PubChem BioAssay AID652243 (Drosophila RNAi Screening Center, 2013)
Aim: 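Fly genes required for human androgen receptor driven transcription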 (primary screen). Cell system: Drosophila S2R+ cells. Knock-down reagent: long dsRNA against Drosophila genes. Time to read-out: 72 h (48 h, then 24 h hormone). Treatment: synthetic androgen R1881 at 10 nM for 24 h. Read-out: 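Firefly light from an androgen-responsive reporter and Renilla control light per well, raw and unnormalised, for each of two replicates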. Reading the numbers: firefly reporter light: higher = more light from androgen-responsive reporter; Renilla control light: higher = more constitutive control signal (cell number, transfection). Rule for the call: 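Across duplicate plates, a knock-down whose log firefly/Renilla ratio shifted a set fold down or up from the GFP/LacZ control mean was a hit; the downward cut appears as both 1.5 and 3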. Calls: active = hit: reporter lowered or raised; inactive = no hit.
In all, the deposit lists about 24,000 reagents; this is an unselected part of those with a known target gene and a result. Of all reagents, 246 (1%) are marked active. 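Plates not normalised; calls are printed but the firefly/Renilla ratio behind them is not deposited; fold cut for lowering reported inconsistently.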 The raw values are shown without normalisation. A plus sign joins genes that one reagent is predicted to hit. No sequences are given here. Not stated in the record: the amount of reagent.

| predicted target | DRSC id | firefly reporter light, replicate 1 | firefly reporter light, replicate 2 | Renilla control light, replicate 1 | Renilla control light, replicate 2 | activity call |
| --- | --- | --- | --- | --- | --- | --- |
| krz (kurtz) | DRSC16979 | 1.48e5 | 1.36e5 | 1.66e6 | 2.17e6 | inactive |
| CG17959 | DRSC18142 | 1.91e5 | 2.18e5 | 2.02e6 | 2.97e6 | inactive |
| CG17959 | DRSC28767 | 8.64e5 | 7.35e5 | 1.75e6 | 1.44e6 | inactive |
| Cpr64Ad (Cuticular protein 64Ad) | DRSC08284 | 1.86e5 | 1.80e5 | 1.91e6 | 2.16e6 | inactive |
| Cpr64Ad (Cuticular protein 64Ad) | DRSC25264 | 9.41e5 | 6.15e5 | 7.99e5 | 8.44e5 | inactive |
| CG34184 | DRSC38644 | 1.24e6 | 8.31e5 | 2.03e6 | 1.71e6 | inactive |
| CG13599 | DRSC14602 | 1.55e5 | 1.82e5 | 2.12e6 | 1.72e6 | inactive |
| LSm3 (Like Sm 3) | DRSC15920 | 1.74e5 | 1.74e5 | 2.51e6 | 2.78e6 | inactive |
| CG5246 | DRSC15751 | 1.28e5 | 1.57e5 | 2.15e6 | 2.43e6 | inactive |
| CG5246 | DRSC30005 | 5.04e5 | 5.17e5 | 1.47e6 | 1.35e6 | inactive |
| CG13001 | DRSC24970 | 8.16e5 | 1.07e6 | 1.02e6 | 1.24e6 | inactive |
| CG6675 | DRSC03735 | 3.50e5 | 3.11e5 | 2.25e6 | 1.64e6 | inactive |
| Elp4 (Elongator complex protein 4) | DRSC25002 | 7.41e5 | 7.61e5 | 8.83e5 | 7.98e5 | inactive |
| MED15 (Mediator complex subunit 15) | DRSC00267 | 68199 | 1.44e5 | 7.69e5 | 5.31e5 | inactive |
| MED15 (Mediator complex subunit 15) | DRSC23615 | 3.86e5 | 5.31e5 | 7.26e5 | 7.27e5 | inactive |
| CG32816 | DRSC17337 | 9.68e5 | 4.68e5 | 1.19e6 | 5.26e5 | inactive |
| CG7691 | DRSC16287 | 1.04e5 | 1.27e5 | 1.40e6 | 1.73e6 | inactive |
| CG14406 | DRSC19592 | 1.89e5 | 1.39e5 | 1.48e6 | 1.25e6 | inactive |
| CG1722 | DRSC20547 | 2.41e5 | 1.62e5 | 6.07e5 | 3.66e5 | inactive |
| FBXO11 (F-box protein 11) | DRSC16497 | 49558 | 28513 | 2.99e5 | 3.26e5 | inactive |
| CG14034 | DRSC02359 | 1.05e5 | 72181 | 8.76e5 | 6.82e5 | inactive |
| CG13793 | DRSC02297 | 2.84e5 | 2.33e5 | 1.69e6 | 1.86e6 | inactive |
| CG13793 | DRSC28252 | 3.10e5 | 5.33e5 | 1.08e6 | 1.55e6 | inactive |
| CG7304 | DRSC10804 | 2.04e5 | 2.04e5 | 2.52e6 | 1.52e6 | inactive |
| CG7304 | DRSC29103 | 4.88e5 | 7.88e5 | 1.11e6 | 1.37e6 | inactive |
| Cdep (Chondrocyte-derived ezrin-like domain containing protein) | DRSC12028 | 2.83e5 | 3.72e5 | 4.63e5 | 5.38e5 | inactive |
| Cdep (Chondrocyte-derived ezrin-like domain containing protein) | DRSC12220 | 45299 | 86115 | 3.05e5 | 3.67e5 | inactive |
| Cdep (Chondrocyte-derived ezrin-like domain containing protein) | DRSC12291 | 66526 | 72483 | 1.57e6 | 1.45e6 | inactive |
| Cdep (Chondrocyte-derived ezrin-like domain containing protein) | DRSC38586 | 1.38e6 | 7.22e5 | 3.42e6 | 2.27e6 | inactive |
| Plc21C (Phospholipase C at 21C) | DRSC00773 | 9.32e5 | 8.49e5 | 3.55e6 | 2.17e6 | inactive |
| CG4017 | DRSC02733 | 1.16e5 | 91018 | 7.36e5 | 7.35e5 | inactive |
| Sr-CII (Scavenger receptor class C, type II) | DRSC07557 | 1.10e5 | 1.19e5 | 1.22e6 | 1.16e6 | inactive |
| Sr-CII (Scavenger receptor class C, type II) | DRSC25606 | 2.50e5 | 2.57e5 | 5.51e5 | 3.13e5 | inactive |
| mRpS35 (mitochondrial ribosomal protein S35) | DRSC08551 | 55568 | 88565 | 6.13e5 | 8.54e5 | inactive |
| EloC (Elongin C) | DRSC07423 | 2.23e5 | 2.34e5 | 1.94e6 | 1.83e6 | inactive |
| EloC (Elongin C) | DRSC29393 | 4.50e5 | 4.64e5 | 1.16e6 | 1.16e6 | inactive |
| CG3748 | DRSC02716 | 95853 | 1.19e5 | 1.03e6 | 1.07e6 | inactive |
| CG3748 | DRSC29984 | 3.13e5 | 2.64e5 | 1.27e6 | 1.44e6 | inactive |
| CG3748 | DRSC39015 | 4.09e5 | 3.97e5 | 1.41e6 | 1.41e6 | inactive |
| ATPsynB (ATP synthase, subunit B) | DRSC09659 | 7.41e5 | 1.11e6 | 1.62e6 | 1.82e6 | inactive |
| CG18179 | DRSC10303 | 1.26e5 | 1.62e5 | 1.92e6 | 1.69e6 | inactive |
| CG18179 | DRSC25528 | 7.15e5 | 5.80e5 | 8.04e5 | 1.08e6 | inactive |
| antr (antares) | DRSC22392 | 1.92e5 | 7.26e5 | 7.84e5 | 1.59e6 | inactive |
| Cyp4g15 (Cytochrome P450 4g15) | DRSC20240 | 8.16e5 | 6.58e5 | 3.84e6 | 3.88e6 | inactive |
| CG31122 | DRSC16286 | 61159 | 1.42e5 | 1.39e6 | 1.54e6 | inactive |
| CG31122 | DRSC23448 | 9.21e5 | 7.22e5 | 6.58e5 | 5.69e5 | inactive |
| TTLL5 (Tubulin tyrosine ligase-like 5) | DRSC14181 | 1.01e5 | 82464 | 5.13e5 | 5.26e5 | inactive |
| Jhbp10 (Juvenile hormone binding protein 10) | DRSC37785 | 4.60e5 | 3.52e5 | 1.85e6 | 9.29e5 | inactive |
| aub (aubergine) | DRSC03486 | 8.99e5 | 4.84e5 | 2.15e6 | 1.70e6 | inactive |
| aub (aubergine) | DRSC26878 | 3.70e5 | 3.23e5 | 7.09e5 | 5.87e5 | inactive |
| Ugt49B2 (UDP-glycosyltransferase family 49 member B2) | DRSC16049 | 3.56e5 | 4.12e5 | 4.31e6 | 4.57e6 | inactive |
| Ugt49B2 (UDP-glycosyltransferase family 49 member B2) | DRSC24548 | 7.16e5 | 8.86e5 | 6.54e5 | 1.06e6 | inactive |
| Acsf2 (Acyl-CoA synthetase family member 2) | DRSC02172 | 1.23e5 | 1.03e5 | 1.22e6 | 8.16e5 | inactive |
| Acsf2 (Acyl-CoA synthetase family member 2) | DRSC27832 | 1.61e5 | 1.43e5 | 4.88e5 | 4.68e5 | inactive |
| CG32638 | DRSC18968 | 8.00e5 | 5.36e5 | 1.04e6 | 6.39e5 | inactive |
| CG6726 | DRSC16101 | 1.92e5 | 1.92e5 | 2.59e6 | 2.28e6 | inactive |
| CG6726 | DRSC28130 | 4.02e5 | 4.39e5 | 1.58e6 | 1.51e6 | inactive |
| CG14929 + CG14930 | DRSC02412 | 3.68e5 | 1.82e5 | 2.11e6 | 1.42e6 | inactive |
| Pop5 (POP5 ribonuclease P/MRP subunit) | DRSC10074 | 3.74e5 | 2.27e5 | 2.91e6 | 1.84e6 | inactive |
| barc (barricade) | DRSC11792 | 60377 | 62814 | 5.05e5 | 4.09e5 | inactive |
| CG34001 | DRSC38847 | 1.21e6 | 1.21e6 | 2.22e6 | 1.98e6 | inactive |
| hpo (hippo) | DRSC06065 | 4.76e5 | 5.41e5 | 1.03e6 | 1.29e6 | inactive |
| hpo (hippo) | DRSC36871 | – | – | – | – | inactive |
| hpo (hippo) | DRSC36872 | – | – | – | – | inactive |
| Acyp (Acylphosphatase) | DRSC01861 | 3.17e5 | 4.39e5 | 2.02e6 | 2.19e6 | inactive |
| CG2224 | DRSC15429 | 1.77e5 | 1.67e5 | 2.37e6 | 3.05e6 | inactive |
| CG2224 | DRSC24269 | 6.47e5 | 5.39e5 | 5.18e5 | 6.30e5 | inactive |
| CG40160 | DRSC37756 | 6.61e5 | 7.73e5 | 1.79e6 | 1.27e6 | inactive |
| CG3430 | DRSC02713 | 1.15e6 | 1.34e6 | 1.87e6 | 1.91e6 | inactive |
| tomb + Cap-D3 | DRSC27851 | 9.26e5 | 7.94e5 | 4.11e6 | 1.67e6 | inactive |
| Tg (Transglutaminase) | DRSC03047 | 1.96e5 | 2.72e5 | 1.72e6 | 1.82e6 | inactive |
| Tg (Transglutaminase) | DRSC29048 | 5.42e5 | 6.04e5 | 1.85e6 | 1.78e6 | inactive |
| bdg (bedraggled) | DRSC07136 | 1.59e6 | 1.10e6 | 2.62e6 | 1.77e6 | inactive |
| orion | DRSC18213 | 2.64e5 | 2.96e5 | 2.66e6 | 2.66e6 | inactive |
| orion | DRSC18214 | 4.19e5 | 4.29e5 | 3.50e6 | 3.09e6 | inactive |

A portion of the results above, as a working copy:
| predicted target | DRSC id | firefly reporter light, replicate 1 | firefly reporter light, replicate 2 | Renilla control light, replicate 1 | Renilla control light, replicate 2 | activity call |
| --- | --- | --- | --- | --- | --- | --- |
| CG3748 | DRSC29984 | 3.13e5 | 2.64e5 | 1.27e6 | 1.44e6 | inactive |
| CG3748 | DRSC39015 | 4.09e5 | 3.97e5 | 1.41e6 | 1.41e6 | inactive |
| ATPsynB (ATP synthase, subunit B) | DRSC09659 | 7.41e5 | 1.11e6 | 1.62e6 | 1.82e6 | inactive |
| CG18179 | DRSC10303 | 1.26e5 | 1.62e5 | 1.92e6 | 1.69e6 | inactive |
| CG18179 | DRSC25528 | 7.15e5 | 5.80e5 | 8.04e5 | 1.08e6 | inactive |
| antr (antares) | DRSC22392 | 1.92e5 | 7.26e5 | 7.84e5 | 1.59e6 | inactive |
| Cyp4g15 (Cytochrome P450 4g15) | DRSC20240 | 8.16e5 | 6.58e5 | 3.84e6 | 3.88e6 | inactive |
| CG31122 | DRSC16286 | 61159 | 1.42e5 | 1.39e6 | 1.54e6 | inactive |
| CG31122 | DRSC23448 | 9.21e5 | 7.22e5 | 6.58e5 | 5.69e5 | inactive |
